Results as given in PMC11592518.
Results are given in words; binding and its absence hold for the method and conditions named. In cells and extracts the contact can be indirect. Here binding means that the protein was enriched with, or labelled near, the bait; the list need not be complete. Sequences can lack the tags named with a protein.

Sequences of proteins named here, by UniProt entry; tags and fusion partners are left off.
UniProt B1N2I7: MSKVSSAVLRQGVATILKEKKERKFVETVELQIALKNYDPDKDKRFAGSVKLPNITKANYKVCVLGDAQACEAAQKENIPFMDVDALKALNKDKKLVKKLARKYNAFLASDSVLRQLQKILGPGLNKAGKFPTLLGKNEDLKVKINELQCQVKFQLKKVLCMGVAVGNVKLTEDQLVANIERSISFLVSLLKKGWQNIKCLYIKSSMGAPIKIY
UniProt C4LTA0: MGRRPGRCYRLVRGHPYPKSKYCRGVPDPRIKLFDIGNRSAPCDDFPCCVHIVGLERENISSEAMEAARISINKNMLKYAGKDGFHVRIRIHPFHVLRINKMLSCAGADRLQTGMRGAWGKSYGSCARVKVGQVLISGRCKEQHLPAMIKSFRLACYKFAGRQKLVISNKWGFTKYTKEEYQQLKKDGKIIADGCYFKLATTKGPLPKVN

T1: Myc-tagged EhDUF2419 (Entamoeba histolytica) (UniProt C4LXA2)
T1 sequence: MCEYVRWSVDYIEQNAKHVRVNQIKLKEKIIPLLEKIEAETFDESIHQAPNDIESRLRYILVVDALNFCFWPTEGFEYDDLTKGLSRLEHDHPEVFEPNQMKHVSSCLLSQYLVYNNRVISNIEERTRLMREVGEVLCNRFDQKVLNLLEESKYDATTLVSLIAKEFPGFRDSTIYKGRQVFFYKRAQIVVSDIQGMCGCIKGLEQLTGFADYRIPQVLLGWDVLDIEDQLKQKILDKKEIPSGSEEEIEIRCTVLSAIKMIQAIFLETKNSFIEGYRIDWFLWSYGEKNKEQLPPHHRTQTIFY

B1: eukaryotic translation initiation factor eIF-5 (protein, UniProt C4M5Q8 1-349)
chain: MSEKVRMLNVPRRKTDEFYRYKMPDLIHKIEGKGNGIKTVIVNCEDIANALDRPASYLCRYFGISLAAATNTDSGKYIINGKHEYKDLMNVLDKFIDKFVLCKKCENPETVMIVKNKTLTLHCKACGEATVVPKNEKLLKFIFVHPPKHEKEEEEDDEQTNEGVVETKENPFDKRTVKITLKLKNGEKEELDIVGKDFDLKKIIDEGHPGNRLNALIGGYKHCYNLSTKTLIREMFEIIFDANMFDNFAEQIDFFDLFLGDELNPQGMISFLEEFNVACAKYKLYNDPRLLNILLYLYNNGYVIKSAMKEWYDGGAVQMSPMKQKAKEFIEWLNDQEEEEEEEEEEDDE
B2: pseudouridine synthase and archaeosine transglycosylase domain RNA-binding motif-containing protein (protein, UniProt C4M3W8 1-179)
chain: MFRKFTREDFGPLKQVKASQTKHIKQSISTQYPGLPIDELFPKNIPLFTANSKIDHSTAILSNNKVYFFQQKENFIPTLQLAMTYPEMMKQVQVDKGAIKHVLSGSNIMAPGLTSAGGKLPDDIVAGNYVLIMGEGVQSPLAIGLMKASAVDIKKQNSGVVIDLIQYAGDGIWTDCLEH
B3: helicase [EHI_053600] (enzyme, UniProt C4M8P6 1-1192)
chain: MSRRKQQMAKALERQRLEKIQRLQQNQSTPSSQPKIEITKPKIEPKVAIQQKKEKKEQKIIEKKEIEKQQSDSQNIQRLKVLYDSLINEFGLTSELIKKGMVGATLENSDDITVDMVIEWLCLNIPSRLLPNSLGGTFNKVKSEKQEIKQEIKKEISKTQEIQEKQKEQEIEEEEDLDALLDRKAFKEAMDSTTKKKKKTPEEMRAEGLKRKAEIARLREEAEKRKKEEAQEEEEENELNFNFDGEIKEEENERWNIISAAEDTKWTGKFPSVIICDYCRRQKYDNPKYKDEKCKEGYLMSASVQLNDKSKTVLYARIPEENTAFLEKATAKNYIALRLLFEMKVQRNFINNFSPRYQEVFDNWTNNSPEEITKNSIILLVSQTPKGEKKKEKEIEEQSINKFTSETQAKDKFSNDYYFDEMNKEINSSHYQNMLENRKQLPIYSNKDHFINLLNNNQIVVVSGTTGSGKSTQLPQFVLENELLNKRGSQTKIYVTQPRRISAVGLSSRVIDERGSNKFVGHQIRFEKTGDEKLVYCTVGVMLRKVLGNPDLEGISHLFIDEVHERDINTDFLLLLIKKLITRNKTIKIIIMSATLAVELFEQYFGSASCLRIESKIHPIQTFYLDDIISFTNYSIDSTSEYYNYKYDDFQKKLIGDQLITVDMNKVNNKLNKTTSDMINQSTVNYELIMDLLHYLITNKPIGCILIFLPGIYEITTLQKEIISTPPFNNLNKFKIHILHSSVPLQQQKEAFSIAPNGLWKIVLSTNIAETSITIPDAKYLIDTGLVRIMSYDRSTKMQRLILTKISKANAQQRTGRVGRVSSGECYKMYSQKRESSFETYPQPEIKRLPLESLCLQILLFGEKNPVQFLADALDAPSQTQIEKSLLQLVTIKAAKRISHLDISGAVKEFEYSATPLGSALAALPVEVSIGKMLLLGCAFGIAQEATLLAACMAVQPLINGENGSNIKRRYCSDASDHIATMKIVEHYIESERKGNGTQFCKNNNINIILMKEILDTRKQFIELLKNYNYPIQSIQSSYKKELLLFILTYVFYPNIIIPQQIIGKTSIEYEYYTKKHQVFMGISSINSMPRIDFKDNVFIYTNMVKSNKIMVWECSLIKKVFIALIATTIAVNYKQKTITLDGWITINSTPLFIARLIQMRKELKEALDDVINQKTQLTKEFMSHLIETKLN
B4: WD domain containing protein (protein, UniProt C4LYM0 1-327)
chain: MAQRGATIKSIVLKGHEKPITKIELTREGDYFVSCSNDKTAMLWRVDPLVSMGAYSCAGAVSSCSISNNGLYLYLASRDGSLYCFELETGKQVYNKLPIPGCYAPIKSVELSPNNENILAVIGAFRTFASSVNLIDPEMKTKPISVLSQEMPQLTKAKWLSNSTFIVGDELGNLNMKDIRTQNNGLRFESHKGEITDIQSDANDILLGTTGKDGKAFVHDIRMPQEVISTFESGYPLQSIGFAPYTDYYAVGGGQDKAMITMTQRDMTMLMTTFVSAVDGQEMVRLPGHFGTVNTIVFSHDGKTIFTGADDGCIRISPLTNPVFASN

molecular target: T1, Myc-tagged EhDUF2419 (Entamoeba histolytica); test: affinity purification with mass spectrometry; anti-c-Myc agarose beads with whole-cell lysate (1 to 2 mg/mL) of MycEhDUF2419-overexpressing trophozoites (24 ug/mL G418), 2 h at 4 °C, six low-stringency washes (0.1% Tween 20, 0.1% NP-40); LC-MS/MS after in-gel trypsin digestion; three replicates compared with empty vector trophozoites (fold change > 2, p < 0.05)

binding, binds:
60S ribosomal protein L10a-2 (from UniProt B1N2I7 1-214)
60S ribosomal protein L10 (from UniProt C4LTA0 1-210)
B1
B2
B3
B4
